Most values lie at the floor of the assay. Slopes are relative: functional sequences can read slightly below zero.
Each substance was assayed on Saccharomyces cerevisiae PS128 hsf1 delta, HSF1(1-493) fusion (assay: growth estimate (transactivation domain function in HSF1 fusion, heat-shock survival) (a.u. (slope of normalised read count over time)); higher = stronger growth at 37°C, i.e. more transactivation activity). Details: library: random library.
Procedure: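 Random 60-nt DNA library encoding peptides of up to 20 aa, fused to the C-terminus of yeast HSF1 residues 1-493 (C-terminal TAD deleted) and expressed from the native HSF1 promoter on a CEN plasmid in hsf1-deleted S. cerevisiae PS128. Cells were selected at 37°C on -trp 5-FOA plates for 0, 2, 4, 6 and 8 days and amplicons were sequenced. Growth estimate is the slope of a robust linear fit of total-sum-normalised read counts (normalised to the first time point) over time, using at least 2 replicates. Sequences are classed functional (TAD activity) above a threshold of -0.13, set from stop-codon control sequences.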
With SWEQTWCLLQSL the growth estimate was less than -0.25. CPTGYCKDVLVVRRYILQGG gave a growth estimate of less than -0.25. NCPLSCVN was tested, and the growth estimate was less than -0.25. For LSMVIKLQGV, the growth estimate was less than -0.25. With QRELWPYDDIAM the growth estimate was -0.105. Substance WMYSDSTPSGTETVFLYEDA has a growth estimate of less than -0.25. Substance DTNIVC has a growth estimate of -0.243. In the case of NPYVFV, the growth estimate is reported as less than -0.25. TETVGVEPMCKGMERIRVCC was tested, and the growth estimate was less than -0.25. VAGPSPQKLGSE gave a growth estimate of -0.231. In the case of KRTTSVS, the growth estimate is reported as less than -0.25. With ASCMSQGVLTKSSRRQTVRV the growth estimate was less than -0.25. For DKFTPIIGRECCSYLIQ, the growth estimate was less than -0.25. With GSISRWLGPVT the growth estimate was less than -0.25. With RLREGVKRANERGVFAAANV the growth estimate was less than -0.25. IRIVSLGGARV showed a growth estimate of less than -0.25. In the case of NAIDSEAGPRRLSG, the growth estimate is reported as less than -0.25. With LVRRCNVKL the growth estimate was less than -0.25. LISVSGSRYKRVWPFAIA was tested, and the growth estimate was less than -0.25. Work on LSCVGFQLRSKTTFLARTVL yielded a growth estimate of less than -0.25. AGSKVMAGTRAQHSPTCVDV gave a growth estimate of less than -0.25. With WRLPRVGGGVLLFDDSLGAP the growth estimate was less than -0.25. AIRCLENRNFSGVIMLEFLV showed a growth estimate of less than -0.25. Work on VWAAFFNSGSSN yielded a growth estimate of less than -0.25. With AGAVTAQTRIFVLQT the growth estimate was less than -0.25. Work on TLSRTGAGVSHAHTGRSQGR yielded a growth estimate of less than -0.25. WGRVLK was tested, and the growth estimate was less than -0.25. For LVDRIVCLRATRMVPYQLSG, the growth estimate was less than -0.25. For EGNGCRKPTARIKCRHLSGR, the growth estimate was less than -0.25. In the case of SPGVVGVRGGKICLLTRIPI, the growth estimate is reported as less than -0.25. In the case of LSRVSSKSAGAYLEGGRARF, the growth estimate is reported as less than -0.25. TDTERAVDDVSYGLGPIIVS gave a growth estimate of less than -0.25. For LLEPMPRDGKGRVPDSCTQA, the growth estimate was less than -0.25. In the case of TDVPSVESRPRWKNQATSNN, the growth estimate is reported as less than -0.25. SHTLASICCCRAGPPIGRLQ showed a growth estimate of less than -0.25. ADEKNTRLVTWEGRTVSHWG showed a growth estimate of less than -0.25. For GLCPAMLNIDCR, the growth estimate was less than -0.25. SARWRAKRPLLLHLRIPVAN gave a growth estimate of less than -0.25. LGYPWDYGALGRTAGTCRT showed a growth estimate of less than -0.25. Substance GISNQGSSE has a growth estimate of less than -0.25. In the case of FCL, the growth estimate is reported as less than -0.25. Substance TRPFADGR has a growth estimate of less than -0.25. For LNWGFG, the growth estimate was less than -0.25. Work on GVMRYTPRVGLITS yielded a growth estimate of less than -0.25. In the case of RWFINTSVLLDRSSMKKYQS, the growth estimate is reported as less than -0.25. Work on SCSGEERRELSHSVSAGGYS yielded a growth estimate of less than -0.25. NFPVCPTLAPC gave a growth estimate of less than -0.25. RVELAMR gave a growth estimate of less than -0.25. HRSRPPVYRFSKAMVRV was tested, and the growth estimate was less than -0.25. With SRATEQRHLMHAKPIASMRS the growth estimate was less than -0.25. With GVAVSA the growth estimate was less than -0.25. LSCRNVCLL was tested, and the growth estimate was less than -0.25. Work on RMSQKLHRDT yielded a growth estimate of less than -0.25. KSNTRRRNVFPCSQAGPARF was tested, and the growth estimate was less than -0.25. QIVTIIQVRETYQPYRNK showed a growth estimate of less than -0.25. In the case of ALRV, the growth estimate is reported as less than -0.25. For IYRRRPLRP, the growth estimate was less than -0.25. GWRSGLSSTRLRR was tested, and the growth estimate was less than -0.25. ATVL gave a growth estimate of less than -0.25. Work on AGEWRPLVSNRSPTGVGGLE yielded a growth estimate of less than -0.25. Substance AYPLAGFLIYSCCCVRGVLG has a growth estimate of -0.229. With AGLRHCLCTVGV the growth estimate was less than -0.25. With RRKSIRYKTNGVLGQTLLAQ the growth estimate was less than -0.25. With HILGPHFVGGPQTA the growth estimate was less than -0.25. Work on HVRAIAPTPLFEQ yielded a growth estimate of less than -0.25. PIFNRTNLSNRLVRRSDGPR showed a growth estimate of less than -0.25. Work on VLGAIY yielded a growth estimate of less than -0.25. Work on PDPGYDHGYKPILLGR yielded a growth estimate of less than -0.25. Work on EEPLVRSTARI yielded a growth estimate of less than -0.25. Work on RRGRPRGGPTFQGFPYR yielded a growth estimate of less than -0.25. Work on YCPKVCHAALSLRAHRSTKA yielded a growth estimate of less than -0.25. For FHSSQVGKRRFALDRLREGT, the growth estimate was less than -0.25. For SYLQRFTMSVGSTNAYPGGS, the growth estimate was less than -0.25. Substance PQRRSWRI has a growth estimate of less than -0.25. In the case of GRRYRFAST, the growth estimate is reported as less than -0.25. With VVGQAAPG the growth estimate was less than -0.25. Work on TTPSARAPRGGFRFQ yielded a growth estimate of less than -0.25. RTSSESSFSRRRHKRS was tested, and the growth estimate was less than -0.25. Work on STRGRGEKCVIRWNIRISTN yielded a growth estimate of less than -0.25. Substance HPAVLPSKS has a growth estimate of less than -0.25. TTFRRSSLFLLSDC gave a growth estimate of less than -0.25. CGESGTRGLWNRGTHAGTAR was tested, and the growth estimate was less than -0.25. In the case of LFLSGLLVFQE, the growth estimate is reported as less than -0.25. GWTRRVG gave a growth estimate of -0.246. In the case of CLL, the growth estimate is reported as less than -0.25. With NGRSGLTSVDQLSPLIKCAT the growth estimate was less than -0.25. RPGRPV showed a growth estimate of less than -0.25. SPS gave a growth estimate of less than -0.25. ERELMV was tested, and the growth estimate was less than -0.25. Substance RGMVQHLGGEVGKQVSRRDV has a growth estimate of less than -0.25. Work on SSKGGQVSGLSRR yielded a growth estimate of less than -0.25. For KFRKLQVDKLRRSQRSIGHK, the growth estimate was less than -0.25. In the case of CCLASGV, the growth estimate is reported as less than -0.25. GGPSVCEPDDGNAVLPKISA showed a growth estimate of -0.246. Work on CKVSRERSRAHVLPR yielded a growth estimate of less than -0.25. RVRDLKRRGD was tested, and the growth estimate was less than -0.25. For TNIGSSY, the growth estimate was less than -0.25. With GQEALASGGPP the growth estimate was less than -0.25. PRFVLIGRTVRTSGTELGAA gave a growth estimate of less than -0.25. Substance DCTGP has a growth estimate of less than -0.25. Work on AGKGV yielded a growth estimate of less than -0.25. RGHQAMGVPIL showed a growth estimate of less than -0.25. For CGRGHTG, the growth estimate was less than -0.25. Substance DTYCTI has a growth estimate of less than -0.25. For VRGRLETTPL, the growth estimate was less than -0.25. For NLCEVYRRGDFVSSRLYIAP, the growth estimate was less than -0.25. Substance SLSEVDNSGL has a growth estimate of less than -0.25. For RPAETGLAGTAGVQLTRPRV, the growth estimate was less than -0.25. GCGKTGDGSRLNSCCGVPLS showed a growth estimate of less than -0.25. For CVSL, the growth estimate was less than -0.25. NFLGPVQFG was tested, and the growth estimate was less than -0.25. RRRAGHRGAGGAAISPRARY showed a growth estimate of less than -0.25. Substance HNPPAQTV has a growth estimate of less than -0.25. Work on CWNRTFCSC yielded a growth estimate of less than -0.25. ASICTFRRVGTSLTHSLRLS was tested, and the growth estimate was less than -0.25. ERTTMFQTLFSRNPQDTCEA gave a growth estimate of less than -0.25. Substance RPCRKV has a growth estimate of less than -0.25. Substance LSSLLGRRTSRFPYGMF has a growth estimate of less than -0.25. With EGVSTHEVGR the growth estimate was less than -0.25. Work on GRRTFGS yielded a growth estimate of less than -0.25. For AVRQHQAGRTLLYKVLMKPA, the growth estimate was less than -0.25. LGVLGDKFGSQESSSDSCPC was tested, and the growth estimate was less than -0.25. DPTPALGFVLVWGRWLASHA showed a growth estimate of less than -0.25. Work on IGGRIHRVVVSLVTLHLAYH yielded a growth estimate of less than -0.25. Substance CSRVKVPLCLF has a growth estimate of -0.243. In the case of TYLC, the growth estimate is reported as less than -0.25. For YSVEDPGRRPVAGQQLASLV, the growth estimate was less than -0.25. Substance RVPANRTRSMSIIVYPDHVA has a growth estimate of less than -0.25. Work on VVLAPWRETQRKSLRNRRRA yielded a growth estimate of -0.246. Substance WVEIATWLGLLSQVWREA has a growth estimate of less than -0.25. For GGHTDMAPRSTWLLE, the growth estimate was less than -0.25. SLSGTKYPCGKGRTA was tested, and the growth estimate was less than -0.25. With LSGTGHKSRG the growth estimate was less than -0.25. GVARTAAEGGEMVLRPFCSV was tested, and the growth estimate was less than -0.25. In the case of HQNPAETTSGWNDTDLSYGI, the growth estimate is reported as less than -0.25. GIQAGGTRKECSKYEHACYN was tested, and the growth estimate was less than -0.25. With LEKE the growth estimate was less than -0.25. Work on GPGN yielded a growth estimate of less than -0.25. TGRTDFFSQKTWTDRE was tested, and the growth estimate was -0.248. EFRIY showed a growth estimate of less than -0.25. Work on NRR yielded a growth estimate of less than -0.25. Work on AQRKIDVSGCSDPRIAPYSG yielded a growth estimate of less than -0.25. Substance ASPYAGMTKGVSDIRKRICG has a growth estimate of less than -0.25. Work on RTSFGAHKDAIHRTSGQSSP yielded a growth estimate of less than -0.25. With QSSGGRVPPGL the growth estimate was less than -0.25. GGGLFDLAASWDELECCLSA was tested, and the growth estimate was 0.0727. VNLNLPRPCHRLLHCQLDAC showed a growth estimate of less than -0.25. With RTRVPARCTTRKGDTISVAG the growth estimate was less than -0.25. Work on RVGHPVSPHGEFKPPPEEIR yielded a growth estimate of less than -0.25. KTLHGTFQLGRLRTIFLGWP was tested, and the growth estimate was less than -0.25. Substance ESDR has a growth estimate of less than -0.25. SGNNSFWE was tested, and the growth estimate was less than -0.25. With NAQEVNHAVFYGMPSAHRNG the growth estimate was less than -0.25.
